# These are yes or no findings as the source states them, for the method shown. Some entries that bind do so weakly or less than the wild type.
# Protein sequences, listed by entry. Tags and fused reporters are not part of them. Lines headed by an entry give the natural chain unless they say otherwise; changes in a name come on top.
# UniProt P02649: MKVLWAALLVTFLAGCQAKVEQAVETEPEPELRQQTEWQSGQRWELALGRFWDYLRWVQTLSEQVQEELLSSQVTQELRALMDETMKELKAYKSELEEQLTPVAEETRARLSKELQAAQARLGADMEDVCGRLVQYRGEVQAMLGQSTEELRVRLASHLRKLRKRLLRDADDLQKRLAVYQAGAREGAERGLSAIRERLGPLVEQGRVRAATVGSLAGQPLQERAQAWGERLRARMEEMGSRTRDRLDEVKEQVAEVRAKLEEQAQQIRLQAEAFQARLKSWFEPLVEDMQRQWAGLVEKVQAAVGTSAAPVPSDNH
# B1: mouse monoclonal antibody 15G8 (antibody, V domains shown)
# VH: EVKLVESGGGLVKPGGSLKLSCAASGFTFSFYAMSWVRQTPEKRLEWVASLSRGGSTYYPDSVKGRFTISRDNARNTLYLQMSSLRSEDTAMFYCAREGATALYAMDYWGQGTSVTVSS
# VL: DVLMTQTPLSLPVSLGDQASISCRSSQSIVHSNGNTYLQWYLQKPGQSPKLLIYKVSNRFSGVPDRFSGSGSGTDFTLKISRVEAEDLGIYYCFQGSHVPWTFGGGTKLEIK
# notes: Same variable regions as 12C12 and 15E10; also called m15G8; mouse 15G8
# B2: mouse monoclonal antibody 15E10 (antibody, V domains shown)
# VH: B1 VH
# VL: B1 VL
# B3: mouse monoclonal antibody 12C12 (antibody, V domains shown)
# VH: B1 VH
# VL: B1 VL
# Experiments:
# [1] = target: ApoE4(1-272) (human) (UniProt P02649); test: immunoprecipitation from cell lysate, western blot with 1F9
# [2] = target: ApoE3(1-272) (human) (UniProt P02649); test: western blot of cortical lysate of E3 knock-in mouse; band (about 30 and 60 KDa) said to be consistent with ApoE(1-272) monomer and dimer
# [3] = target: ApoE4(1-272) (human) (UniProt P02649); test: western blot of cortical lysate of E4 knock-in mouse; band (about 30 and 60 KDa) said to be consistent with ApoE(1-272) monomer and dimer
Binder,binding [1],binding [2],binding [3]
B1,binds,binds,binds
B2,–,binds,binds
B3,–,binds,binds

# From patent US20120204275A1 (NEOTOPE BIOSCIENCES, published 2012)
